Results on one molecule are retold here after article PMC8945123 (ACS Omega, 2022).

Data set [1] in a line: PAMPA-BBB permeation assay. To be noted: prediction of BBB penetration from Pe.
Data set [2] can be described thus: Neurotoxicity MTT assay on neuroblastoma SH-SY5Y cells. The format is cell-based. The note with it: human. For orientation: Formazan colour is commonly taken as a measure of viable cells.

Structures are written as SMILES.

Turning to `COc1cc2c(cc1OC)C(=O)C(CC1CCN(Cc3ccccc3)CC1)C2` (centres unmarked) [donepezil, reference compound], the “prediction (PAMPA-BBB) (CNS+, CNS–)” value in data set [1] was “CNS+ (‘CNS+’ (prediction of high BBB permeation); Pe (10^–6 cm/s) > 4.39)”. In data set [2], the viability (usually a per cent measure of how many cells are alive, often set against a control) at 1 µM worked out at 97 ± 1.18%; the viability at 10 µM stood at 94.8 ± 1.29%; the viability at 20 µM is 82.4 ± 1.03%; the viability at 40 µM amounted to 76.6 ± 1.37%.
